Our source for the binding values is publication PMC11580427.

Chains of the proteins cited; added tags and fusions are not shown. Lines headed by an entry give the natural chain unless they say otherwise; changes in a name come on top.
UniProt E2RTP0: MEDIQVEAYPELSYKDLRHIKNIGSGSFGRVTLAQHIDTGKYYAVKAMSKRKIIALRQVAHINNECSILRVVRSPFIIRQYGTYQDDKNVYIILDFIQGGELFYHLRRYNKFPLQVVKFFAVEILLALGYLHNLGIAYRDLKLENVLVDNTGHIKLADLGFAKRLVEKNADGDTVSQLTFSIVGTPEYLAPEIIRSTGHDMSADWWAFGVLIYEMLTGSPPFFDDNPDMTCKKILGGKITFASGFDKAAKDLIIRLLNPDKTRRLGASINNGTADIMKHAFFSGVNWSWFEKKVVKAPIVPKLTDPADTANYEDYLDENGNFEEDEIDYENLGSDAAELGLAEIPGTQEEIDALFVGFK
UniProt Q2VWB6: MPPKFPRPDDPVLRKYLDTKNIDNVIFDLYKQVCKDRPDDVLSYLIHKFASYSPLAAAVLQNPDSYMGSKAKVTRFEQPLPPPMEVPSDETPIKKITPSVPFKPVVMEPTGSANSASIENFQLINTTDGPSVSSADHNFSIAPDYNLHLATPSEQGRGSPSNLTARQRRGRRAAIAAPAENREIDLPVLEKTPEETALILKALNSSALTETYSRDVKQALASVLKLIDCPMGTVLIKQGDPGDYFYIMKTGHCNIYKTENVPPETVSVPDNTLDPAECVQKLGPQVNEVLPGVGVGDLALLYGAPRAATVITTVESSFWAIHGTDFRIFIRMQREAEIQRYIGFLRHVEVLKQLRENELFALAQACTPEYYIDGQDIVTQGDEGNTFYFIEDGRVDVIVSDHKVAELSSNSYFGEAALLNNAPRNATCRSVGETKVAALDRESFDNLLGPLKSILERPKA

The test deals with Giardia lamblia PKA catalytic domain (GlPKAc) tagged with cHalo (156-257) (Giardia lamblia) (UniProt E2RTP0). The experiment in a line: split reporter; Split-Halo in live Giardia cells: GlPKAr-nHalo (1-155) and GlPKAc-cHalo (156-257) under native promoters; 20 nM Janelia Fluor HaloTag ligand; live imaging of trophozoites and at 0, 2 and 4 h post-exposure to encystation medium.

No constants are given. Whether binding was seen depends on the method and setting. In cells and extracts the contact can be indirect. A result given as binding can be weak or reduced; the word gives no strength.

Consider “Giardia lamblia PKA regulatory domain (GlPKAr) tagged with nHalo (1-155) (from UniProt Q2VWB6)”, for which the binding result was “binds”.
